Experimental data as given in the supplement of paper PMC7666118.
This is one part of the list.

By UniProt entry, the sequences of proteins in these tests, tags left out. Where a name states a change or a piece, a line headed by the entry shows the natural chain unless it says otherwise.
UniProt P49591: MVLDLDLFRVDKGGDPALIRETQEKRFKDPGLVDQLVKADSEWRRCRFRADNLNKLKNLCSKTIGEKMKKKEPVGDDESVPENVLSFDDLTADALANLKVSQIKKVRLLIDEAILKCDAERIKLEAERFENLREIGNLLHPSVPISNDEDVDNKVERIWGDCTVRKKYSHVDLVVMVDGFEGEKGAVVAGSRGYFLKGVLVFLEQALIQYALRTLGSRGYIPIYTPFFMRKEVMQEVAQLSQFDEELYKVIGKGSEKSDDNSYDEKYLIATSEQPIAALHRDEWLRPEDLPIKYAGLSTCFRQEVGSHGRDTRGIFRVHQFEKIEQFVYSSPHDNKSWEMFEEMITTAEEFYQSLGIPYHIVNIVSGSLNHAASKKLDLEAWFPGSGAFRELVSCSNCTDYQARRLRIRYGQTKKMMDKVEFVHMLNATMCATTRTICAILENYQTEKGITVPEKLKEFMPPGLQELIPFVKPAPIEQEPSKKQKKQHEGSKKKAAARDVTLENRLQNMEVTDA

What follows are compounds tested against SARS (UniProt P49591) (assay: dose-dependent thermal stabilisation call (2D-TPP, DLPTP, 10% FDR) (binary (1 = stabilised)); higher = stabilised by the compound). Conditions: system: HL-60 intact cells; concentration range 0.04-10 µM.
Method: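 2D thermal proteome profiling in intact HL-60 cells treated with BRD-3811 (0, 0.04, 0.29, 2, 10 uM) for 90 min at 37 C, then heated 3 min at one of 12 temperatures (42-63.9 C). Soluble protein was quantified by TMT10 MS. The value is the DLPTP call of the paper: dose-dependent thermal stabilisation over all temperatures at 10% FDR (F-test of a dose-response against a flat model); one experiment, one call per tested protein.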

Row | Compound | dose-dependent thermal stabilisation call
1 | COc1ccc(Cn2ccc3cc(C)c(C(=O)NO)cc32)cc1 | inactive: 0
